Data as given in PubChem BioAssay AID1259308 (NCATS, 2017)
The whole screen tested about 59,000 reagents; this is a part drawn at random. Of all reagents, about 1,510 (2.6%) are marked active. 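Calls use total luciferase alone and ignore viability, so some active siRNAs may act by altering cell number.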 Reagents against one gene are numbered here. Not all columns of the deposit are shown. Reagent sequences are not shown.

Test: 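Candidate targets for better recombinant protein yield in mammalian cells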 (primary screen)
System: human HEK293 embryonic kidney cells stably expressing firefly luciferase (HEK-CMV-Luc2-Hygro)
Reagent: single siRNA against human genes, 0.8 pmol siRNA per well
Duration: 72 h
Detection: 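Luciferase light (ONE-Glo) measured on one replicate plate set and viability (CellTiter-Glo) on the other, scaled to a negative control siRNA, with robust z-scores and luciferase per cell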
Scale: total luciferase, z-score: higher = more reporter protein produced
Hit rule: 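Active when the median/MAD z-score for overall luciferase is greater than 3; a gene was taken forward for validation with new siRNAs if at least two of its three siRNAs passed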
Meaning of the calls: active = raised luciferase; inactive = no rise

total luciferase, z-score, by target gene and reagent
APLF (aprataxin and PNKP like factor): #1 1.22 inactive; #2 1.22 inactive; #3 0.558 inactive
NPM2 (nucleophosmin/nucleoplasmin 2): #1 1.36 inactive; #2 -0.271 inactive; #3 -0.819 inactive
C3orf80 (chromosome 3 open reading frame 80): #1 3.12 active; #2 -1.91 inactive; #3 0.735 inactive
LRRC4 (leucine rich repeat containing 4): #1 -0.285 inactive; #2 -1.84 inactive; #3 0.993 inactive
TMEM192 (transmembrane protein 192): #1 -1.55 inactive; #2 1.7 inactive; #3 -1.3 inactive

Records above whose target name begins with C or c:
total luciferase, z-score, by target gene and reagent
C3orf80 (chromosome 3 open reading frame 80): #1 3.12 active; #2 -1.91 inactive; #3 0.735 inactive

Additional reagents follow.
total luciferase, z-score, by target gene and reagent
PPP2CA (protein phosphatase 2 catalytic subunit alpha): #1 2.17 inactive; #2 1.13 inactive; #3 1.58 inactive
DHRS12 (dehydrogenase/reductase 12): #1 -0.438 inactive; #2 3.46 active; #3 -0.159 inactive
PIGZ: #1 0.456 inactive; #2 2.97 inactive; #3 -0.618 inactive
